The values below come from the supplement of paper PMC8732350.

Where a name gives a salt, the structure may show the parent alone. ± gives the standard deviation of the averaged measurements. Some of the results follow. This data set is noisy: repeats of one test often differ as much as different tests do.

This test deals with A549. The experiment in a line: surface PD-L1 immunofluorescence intensity relative to IFN-gamma-only control (ratio); higher = more PD-L1 expression. The conditions noted are these: 10 µM; exposure time 24 h; IFN-gamma 100 ng/mL.
For `Cc1onc(-c2ccccc2)c1C(=O)N[C@@H]1C(=O)N2[C@@H]1SC(C)(C)[C@@H]2C(=O)O` [Oxacillin sodium], the “surface PD-L1 immunofluorescence intensity” value turned out to be 0.969.
On to `Cc1onc(-c2ccccc2)c1C(=O)N[C@@H]1C(=O)N2[C@@H]1SC(C)(C)[C@@H]2C(=O)O` [Oxacillin sodium monohydrate], for which the “surface PD-L1 immunofluorescence intensity” value was found to be 0.928.
With `O=C(O)CNC(=O)C(CS)Cc1ccccc1` (centres undefined) [Thiorphan], the “surface PD-L1 immunofluorescence intensity” value worked out at 0.982.
Consider `CC(C)c1noc(N2CCC(COc3ccc(-c4ccc(S(C)(=O)=O)cc4)nc3)CC2)n1`, for which the “surface PD-L1 immunofluorescence intensity” value was determined as 1.06.
For `CCOC(=O)C1=CN(Cc2ccccc2)C=C(C(=O)OCC)C1c1ccccc1`, the “surface PD-L1 immunofluorescence intensity” value was 0.943.
As to `CC[C@H](Nc1ncnc2[nH]cnc12)c1nc2cccc(F)c2c(=O)n1-c1ccccc1`, the “surface PD-L1 immunofluorescence intensity” value stood at 1.02.
On to `CCC(=O)NCC[C@@H]1CCc2ccc3c(c21)CCO3` [Ramelteon (TAK-375)], for which the “surface PD-L1 immunofluorescence intensity” value came to 1.09.
With `C[C@H](NC(=O)/C(C#N)=C/c1ccc(O)c(O)c1)c1ccccc1` [Tyrphostin B44, (+) enantiomer], the “surface PD-L1 immunofluorescence intensity” value was 0.994.
With `O=S(=O)(NCCNC/C=C/c1ccc(Br)cc1)c1cccc2cnccc12`, the “surface PD-L1 immunofluorescence intensity” value is 0.907.
Take `O=S(=O)(NCCNC/C=C/c1ccc(Br)cc1)c1cccc2cnccc12` [H 89 dihydrochloride]: the “surface PD-L1 immunofluorescence intensity” value is 0.988.
For `COc1ccc(-c2coc3cc(O)cc(O)c3c2=O)cc1` [Biochanin A (4-Methylgenistein)], the “surface PD-L1 immunofluorescence intensity” value was 1.03.
On to `COc1ccccc1N1CCN(CCN2C(=O)CC3(CCCC3)CC2=O)CC1` [BMY 7378 dihydrochloride], for which the “surface PD-L1 immunofluorescence intensity” value amounted to 1.09.
Take `CCN(CC)CCCCC1CCN(CC(=O)N2c3ccccc3C(=O)Nc3cccnc32)CC1`: the “surface PD-L1 immunofluorescence intensity” value was 0.998.
Take `CN(C)CCC(c1ccc(Cl)cc1)c1ccccn1` (centres undefined) [Chlorpheniramine maleate]: the “surface PD-L1 immunofluorescence intensity” value amounted to 0.912.
The result for `COc1cc(N)c(Cl)cc1C(=O)NC1CCN(CCCOc2ccc(F)cc2)CC1OC` (centres undefined) [Cisapride] reads 1.03 ± 0.025; that for `CC[N+](C)(CC)CCC[n+]1c(-c2ccccc2)c2cc(N)ccc2c2ccc(N)cc21` [Propidium iodide], 1.14; that for `O=C(O)c1ccccc1Nc1cccc(C(F)(F)F)c1` [Flufenamic acid], 0.976 ± 0.13.
Take `O=C(O)Cn1nnc(-c2cc(N3CCC(Oc4cc(F)ccc4Br)CC3)no2)n1`: the “surface PD-L1 immunofluorescence intensity” value was determined as 1.11.
In the case of `O=C(c1ccc(F)cc1)C1CCN(CCn2c(=S)[nH]c3ccccc3c2=O)CC1` [Altanserin hydrochloride], the “surface PD-L1 immunofluorescence intensity” value amounted to 0.997.
Regarding `c1ccc(-c2nn3c(c2-c2ccnc4cc(OCCN5CCOCC5)ccc24)CCC3)nc1`, the “surface PD-L1 immunofluorescence intensity” value was 0.982.
As to `O=C1O[C@H]([C@@H](O)CO)C(O)=C1O` [Ascorbic acid], the “surface PD-L1 immunofluorescence intensity” value was 1.13.
For `Clc1ccc(C(c2ccccc2Cl)C(Cl)Cl)cc1` (centres undefined) [Mitotane (Lysodren)], the “surface PD-L1 immunofluorescence intensity” value was 0.91.
Regarding `Clc1ccc(C(c2ccccc2Cl)C(Cl)Cl)cc1` (centres undefined) [Mitotane], the “surface PD-L1 immunofluorescence intensity” value was 1.13.
For the molecule `C[C@@H]1CC[C@@]2(OC1)O[C@H]1C[C@H]3[C@@H]4CC=C5C[C@@H](O)CC[C@]5(C)[C@H]4CC[C@]3(C)[C@H]1[C@@H]2C` [Diosgenin], the “surface PD-L1 immunofluorescence intensity” value came to 0.992.
The value for `O=C1Nc2ccc(Cl)cc2[C@@](C#CC2CC2)(C(F)(F)F)O1` [Efavirenz] was 1.08; that for `c1ccc2sc(N3CCN(Cc4ccc5c(c4)OCO5)CC3)nc2c1` [2-[1-(4-Piperonyl)piperazinyl]benzothiazole] was 1.18.
Consider `N#Cc1ccc(NC(=O)Nc2ccccc2Br)c2n[nH]nc12`, for which the “surface PD-L1 immunofluorescence intensity” value amounted to 0.963.
The value for `OCCN1CCN(CC/C=C2/c3ccccc3Sc3ccc(Cl)cc32)CC1` [Zuclopenthixol dihydrochloride] was 0.997.
As for `C=CCN1CCc2cc(O)c(O)cc2C(c2ccccc2)C1` (centres undefined), the “surface PD-L1 immunofluorescence intensity” value was 1.01.
On to `O=C(NCCCCCCNC(=O)ON=C1CCCCC1)ON=C1CCCCC1`, for which the “surface PD-L1 immunofluorescence intensity” value came out at 1.01.
As to `CC(C)[C@H](O)C(=O)N[C@@H](C)C(=O)N[C@@H]1C(=O)N(C)CCc2ccccc21`, the “surface PD-L1 immunofluorescence intensity” value was determined as 1.06.
For the molecule `NS(=O)(=O)c1nn2cc(-c3ccccc3)nc2s1`, the “surface PD-L1 immunofluorescence intensity” value came out at 0.959.
Regarding `CCc1cc(Cl)c(OC)c(C(=O)NC[C@@H]2CCCN2CC)c1O` [Eticlopride hydrochloride], the “surface PD-L1 immunofluorescence intensity” value amounted to 0.929.
As for `CN(C)CCOC(=O)C(c1ccccc1)C1(O)CCCC1` (centres undefined) [Cyclopentolate hydrochloride], the “surface PD-L1 immunofluorescence intensity” value turned out to be 1.03.
With `Nc1ccc(/N=N/c2ccccc2)c(N)n1` [Phenazopyridine hydrochloride], the “surface PD-L1 immunofluorescence intensity” value turned out to be 0.974.
Take `CCC(=O)O[C@]1(C(=O)SCF)[C@H](C)C[C@H]2[C@@H]3C[C@H](F)C4=CC(=O)C=C[C@]4(C)[C@@]3(F)[C@@H](O)C[C@@]21C` [Fluticasone propionate]: the “surface PD-L1 immunofluorescence intensity” value came to 0.805 ± 0.015.
The result for `CCCNC(C)(C)COC(=O)c1ccccc1` [Meprylcaine hydrochloride] reads 0.978.
The result for `C[N+](C)(CCOc1ccccc1)Cc1ccccc1.O=C([O-])c1cc2ccccc2cc1O` [Bephenium hydroxynaphthoate] reads 0.934; that for `CC(NCCc1ccc(O)cc1)C(O)c1ccc(O)cc1` (centres undefined) [Ritodrine hydrochloride], 1.05; that for `CCC1(C)CC(=O)NC1=O` (centres undefined) [Ethosuximide], 0.906.
With `NC1CCN(c2c(F)cc3c(=O)c(C(=O)O)cn(C4CC4)c3c2Cl)C1` (centres undefined) [Clinafloxacin], the “surface PD-L1 immunofluorescence intensity” value came to 0.943.
Regarding `CC(C)(O)CC(=O)NCCn1ccc2ncnc(Nc3ccc(Oc4cccc(C(F)(F)F)c4)c(Cl)c3)c21`, the “surface PD-L1 immunofluorescence intensity” value stood at 0.957 ± 0.012.
Turning to `C[C@H](Nc1ncnc2nc[nH]c12)c1cc2cccc(Cl)c2c(=O)n1-c1ccccc1`, the “surface PD-L1 immunofluorescence intensity” value was found to be 0.982.
Regarding `C[C@H](Nc1ncnc2nc[nH]c12)c1cc2cccc(Cl)c2c(=O)n1-c1ccccc1` [Duvelisib (IPI-145, INK1197)], the “surface PD-L1 immunofluorescence intensity” value turned out to be 0.969.
As for `CC(C)c1cnn2c(NCc3ccccc3)cc(NCCCCCCN)nc12`, the “surface PD-L1 immunofluorescence intensity” value is 1.
The result for `CCc1nn(CCCN2CCN(c3cccc(Cl)c3)CC2)c(=O)n1CCOc1ccccc1` [Nefazodone hydrochloride] reads 1.03; that for `CCc1nn(CCCN2CCN(c3cccc(Cl)c3)CC2)c(=O)n1CCOc1ccccc1` [Nefazodone HCl], 0.941; that for `O=S(=O)(c1cccc2cnccc12)N1CCCNCC1` [Fasudil hydrochloride], 1.02.
For `O=S(=O)(c1cccc2cnccc12)N1CCCNCC1` [Fasudil HCl (HA-1077)], the “surface PD-L1 immunofluorescence intensity” value was 0.924.
Regarding `CCCCS(=N)(=O)CCC(N)C(=O)O` (centres undefined) [Buthionine sulfoximine], the “surface PD-L1 immunofluorescence intensity” value was determined as 0.901.
Turning to `Cc1ccc(C(=O)c2cc(/C=C/C(=O)NO)n(C)c2)cc1`, the “surface PD-L1 immunofluorescence intensity” value stood at 1.12.
The result for `CCNC1(C(N)=O)CCN(c2ncnc3c2nc(-c2ccccc2Cl)n3-c2ccc(Cl)cc2)CC1` reads 1.06; that for `CCC(C)(C)C(=O)O[C@H]1C[C@@H](C)C=C2C=C[C@H](C)[C@H](CC[C@@H]3C[C@@H](O)CC(=O)O3)[C@H]21` [Simvastatin (Zocor)], 1.11.
Take `CCC(C)(C)C(=O)O[C@H]1C[C@@H](C)C=C2C=C[C@H](C)[C@H](CC[C@@H]3C[C@@H](O)CC(=O)O3)[C@H]21` [Simvastatin]: the “surface PD-L1 immunofluorescence intensity” value was determined as 1.07 ± 0.11.
The value for `CC(=O)Oc1ccc(C(c2ccc(OC(C)=O)cc2)c2ccccn2)cc1` [Bisacodyl] was 1.06; that for `CCOC(=O)CC(=O)N1CCSC1COc1ccccc1OC` (centres undefined) [Moguisteine] was 1.01; that for `N#CC[C@H](C1CCCC1)n1cc(-c2ncnc3[nH]ccc23)cn1` was 0.779.
With `COc1cc(CNC(=O)CCCCCCC(C)C)ccc1O` [Dihydrocapsaicin], the “surface PD-L1 immunofluorescence intensity” value was 0.999.
For `CCCc1nn(C)c2c(=O)[nH]c(-c3cc(S(=O)(=O)N4CCN(C)CC4)ccc3OCC)nc12` [Sildenafil], the “surface PD-L1 immunofluorescence intensity” value turned out to be 1.12.
Regarding `CN(C[C@@H]1COCCO1)S(=O)(=O)Nc1ccc2ccc3ncc(-c4cnn(C)c4)cc3c(=O)c2c1`, the “surface PD-L1 immunofluorescence intensity” value worked out at 0.917.
Regarding `CN(C)CCc1c[nH]c2ccc(CS(=O)(=O)N3CCCC3)cc12` [Almotriptan malate (Axert)], the “surface PD-L1 immunofluorescence intensity” value turned out to be 1.18.
`Cn1nc(C(C)(C)C)cc1C(=O)N[C@@H](Cc1cccc(Cl)c1)C(=O)NCC#N` [Cathepsin Inhibitor 1]: the “surface PD-L1 immunofluorescence intensity” value is 0.942.
In the case of `CC1(COc2ccc(CC3SC(=O)NC3=O)cc2)CCCCC1` (centres undefined) [Ciglitazone], the “surface PD-L1 immunofluorescence intensity” value is 1.04.
Take `CC(C)SC(=N)N` [S-Isopropylisothiourea hydrobromide]: the “surface PD-L1 immunofluorescence intensity” value came to 0.96.
For the molecule `O=C(Nc1ccccc1)N1CCN(c2nc(-c3ccccc3)ns2)CC1`, the “surface PD-L1 immunofluorescence intensity” value is 1.
On to `O=C(O)CCC(=O)c1ccc(-c2ccccc2)cc1` [Fenbufen], for which the “surface PD-L1 immunofluorescence intensity” value came to 0.994.
As for `CCS(=O)(=O)N(C)[C@H]1c2cc(C#N)ccc2OC(C)(C)[C@@H]1O` (racemic) [Chromanol 293B], the “surface PD-L1 immunofluorescence intensity” value came to 1.01.
For the molecule `CN1CCN2c3ccccc3Cc3ccccc3C2C1` (centres undefined) [Mianserine hydrochloride], the “surface PD-L1 immunofluorescence intensity” value was found to be 0.966.
For the molecule `CN1CCN2c3ccccc3Cc3ccccc3C2C1` (centres undefined) [Mianserin hydrochloride], the “surface PD-L1 immunofluorescence intensity” value amounted to 1.02.
For `CCCCCCCCOc1ccccc1C(=O)Nc1ccc(C(=O)OCC[N+](C)(CC)CC)cc1` [Otilonium Bromide], the “surface PD-L1 immunofluorescence intensity” value came out at 1.01.
`N[C@@H](Cc1ccc(O)c(O)c1)C(=O)O` [Levodopa]: the “surface PD-L1 immunofluorescence intensity” value came out at 0.89.
Take `CC(=O)N(C/C=C(\C)CCC=C(C)C)[C@@H](CS)C(=O)O` [AGC (Acetyl-geranyl-cysteine)]: the “surface PD-L1 immunofluorescence intensity” value came to 1.03.
On to `CCOC(=O)C1=C(C)NC(C)=C(C(=O)OC)C1c1cccc(Cl)c1Cl` (centres undefined) [Felodipine], for which the “surface PD-L1 immunofluorescence intensity” value amounted to 1.02.
For `C[C@H](CCC(=O)O)[C@H]1CC[C@H]2[C@@H]3C(=O)C[C@@H]4CC(=O)CC[C@]4(C)[C@H]3CC(=O)[C@]12C` [Dehydrocholic acid], the “surface PD-L1 immunofluorescence intensity” value came to 0.973.
Consider `Cc1oc(S(=O)(=O)N2CCCCC2)cc1NC(=O)Nc1ccccc1`, for which the “surface PD-L1 immunofluorescence intensity” value was 1.02.
Consider `Cc1nc2sccn2c(=O)c1CCN1CCC(=C(c2ccc(F)cc2)c2ccc(F)cc2)CC1` [Ritanserin], for which the “surface PD-L1 immunofluorescence intensity” value stood at 1.07.
On to `O=C(NC(Cc1cc(=O)[nH]c2ccccc12)C(=O)O)c1ccc(Cl)cc1` (centres undefined) [Rebamipide], for which the “surface PD-L1 immunofluorescence intensity” value came out at 0.96.
With `CCN1C(=O)C=CC1=O` [N-Ethylmaleimide], the “surface PD-L1 immunofluorescence intensity” value amounted to 0.928.
`CC(C)c1cc(C(C)C)c(CC(=O)NS(=O)(=O)Oc2c(C(C)C)cccc2C(C)C)c(C(C)C)c1` [Avasimibe (CI-1011)]: the “surface PD-L1 immunofluorescence intensity” value was 1.08.
